Test results taken from article PMC11786349.

Biological target: TRPV1 immunoprecipitated for mass spectrometry (UniProt O35433)
Experiment: affinity purification with mass spectrometry; immunoprecipitation of TRPV1, Coomassie-stained gel band excised, Q Exactive Plus mass spectrometer; cells not given

binding: binds
Substance: CDK5 found by mass spectrometry in the TRPV1 immunoprecipitate (from UniProt Q03114 1-292) (enzyme)

Results are given in words; binding and its absence hold for the method and conditions named. Binding seen in cells or lysates may run through a third protein. Here binding means that the protein was enriched with, or labelled near, the bait; the list need not be complete.
